Results are given in words; binding and its absence hold for the method and conditions named. Some entries that bind do so weakly or less than the wild type. For some of these results: Sequences can lack the tags named with a protein.
Experiments:
[1] = molecular target: T1, ALA-10 mutagenic UNI-tag peptide (DKGEVPKDRASA); test: dot blot, peptide on PVDF membrane
T1 construct: UNI-tag with alanine at position 10 (F10A); also called Uni-Tag-ALA 10; positive control
T1 peptide: DKGEVPKDRASA

[2] = molecular target: UNI-tag modified NY-ESO-1 (T11.8-10-17) specific TCR; test: flow cytometry on transduced Jurkat 76 -/- CD8+ ieGFP cells
[3] = molecular target: UNI-tag modified KRasG12V (T47.8-41-071) specific TCR; test: as above
[4] = molecular target: UNI-tag modified PRAME-VLD (T4.8-1-29) specific TCR; test: as above

binding [2]: binds
binding [3]: binds
binding [4]: binds
B1: recombinant monoclonal MDG827 antibody (produced in HEK293 cells) (antibody, V domains shown)
VH: EVQLEESGGGLVQPGRSMKLSCAASGFTFSDYGMAWVLQGPTKGLEWVASISYDGNRPYYRDSVKGRFTISRDNAKSTLYLQMESLRSEDTATYYCVKDLFEIGDFDYWGQGVMVTVSS
VL: DVLMTQTPVSLPVSLGGQVSISCRSSQSLVHSDGNTYLHWYLQKPGQSPQLLIYRVSNRFSGVPDRFTGSGSGTDFTLKISRVEPEDLGVYYCLQSTHFPLTFGSGTKLEIKR
notes: used as culture supernatant; Detected with anti-rat IgG2a; also called recombinantly produced MDG827; anti-TRBC MDG827 antibody
binding [1]: binds
